In US20250002570A1 (Innovent, published 2025):
Changes are numbered by the printed parent chain. Results are given in words; binding and its absence hold for the method and conditions named. Some binding calls cover weakened binding; strength is not graded here. For some of these results: Tags and fused reporters may be left off the sequences shown. Each block holds one binder with its values, some of them ahead of it.

Key:
human VEGF C [1] = target: T1, human VEGF C (human, UniProt P49767 103-227, limits assumed); assay: BLI (ForteBio) and ELISA blocking, as in Examples 3-4
T1 construct: also called hVEGFC; hVEGF C
T1 sequence (looked up): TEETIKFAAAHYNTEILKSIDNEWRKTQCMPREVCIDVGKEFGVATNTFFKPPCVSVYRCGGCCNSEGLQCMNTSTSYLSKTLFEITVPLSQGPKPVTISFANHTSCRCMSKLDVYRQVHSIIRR

human VEGF C [2] = target: T1, human VEGF C; assay: phage panning and binding ELISA of clones from the affinity maturation library

B1: LA49G9.2 humanized anti-VEGF C VHH-Fc antibody (Fc fusion)
chain: EVQLVESGGGLVQPGGSLRLSCAASGSMFSMYAMGWYRQAPGKQRELVAATTSGGSTLYADSVKGRFTISRDNSKNTLYLQMNSLRAEDTAVYYCYTYWRGSDPENYWGQGTQVTVSS
notes: not shown: Fc part (and any hinge or linker) of the dimerized VHH-Fc antibody
binding (human VEGF C [1]): binds

B3: LA63G12.1 humanized anti-VEGF C VHH-Fc antibody (Fc fusion)
chain: B1 chain with M28S, M31P, A49S, L78V, T97M, Y98H
notes: as for B1
binding (human VEGF C [1]): binds

Now from value to binder:

binding (human VEGF C [2]): binds
B2: am63G12-5G8-18B9 affinity-matured humanized anti-VEGF C VHH antibody (VHH)
VHH: B1 chain with M28S, M31P, A49S, T52S, S56F, L78V, W99Y, G101E, S102Y, N106M
notes: also called Am63G2-5G8-18B9; am63G12.1-5G8-18B9

binding (human VEGF C [2]): binds
B4: am63G12-14B11 affinity-matured humanized anti-VEGF C VHH antibody (VHH)
VHH: B1 chain with M28S, M31P, A49S, T52S, S53E, S56F, L78V, T97M, Y98H
notes: also called am63G12.1-14B11
